Experimental data: PubChem BioAssay AID1259405 (NCATS, 2018)
Screen: 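Silenced genes that increase secreted GFP made by CHO cells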 (primary screen). Cell system: Chinese hamster CHO-K1 ovary cells with stable secreted eGFP expression. Knock-down reagent: single siRNA against mouse genes, 0.8 pmol siRNA per well (2 µl of 400 nM stock). Duration: 3 days. Measured: 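Percent of the per-plate non-targeting control median for intracellular GFP per well by laser scanning cytometry and for cell viability by ATP luminescence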. Reading the numbers: GFP, % of control: higher = more GFP per well, higher productivity; viability (ATP), % of control: higher = more viable cells (more ATP). Active means: 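a knock-down is called active if GFP reaches 120% or more of non-targeting control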.
This is a random part of about 50,000 reagents. About 4,000 of all reagents (8%) were called active. 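Mouse siRNA library applied to hamster cells; one well for each siRNA.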 Unmarked entries are inactive. Reagents against one gene are numbered here. Reagent sequences are not shown.

{"gene symbol": "Zfp444 (zinc finger protein 444)", "siRNA no.": 1, "GFP, % of control": 46.2, "viability (ATP), % of control": 54.2}
{"gene symbol": "Zfp444 (zinc finger protein 444)", "siRNA no.": 2, "GFP, % of control": 91.3, "viability (ATP), % of control": 97.6}
{"gene symbol": "Akr1c18 (aldo-keto reductase family 1, member C18)", "siRNA no.": 1, "GFP, % of control": "129 (active)", "viability (ATP), % of control": 82.3}
{"gene symbol": "Akr1c18 (aldo-keto reductase family 1, member C18)", "siRNA no.": 2, "GFP, % of control": "153 (active)", "viability (ATP), % of control": 93.8}
{"gene symbol": "Akr1c18 (aldo-keto reductase family 1, member C18)", "siRNA no.": 3, "GFP, % of control": 88.7, "viability (ATP), % of control": 74.2}
{"gene symbol": "Ptov1 (prostate tumor over expressed gene 1)", "siRNA no.": 1, "GFP, % of control": 52.2, "viability (ATP), % of control": 75.9}
{"gene symbol": "Ptov1 (prostate tumor over expressed gene 1)", "siRNA no.": 2, "GFP, % of control": 71.3, "viability (ATP), % of control": 90.4}
{"gene symbol": "Ptov1 (prostate tumor over expressed gene 1)", "siRNA no.": 3, "GFP, % of control": 90.9, "viability (ATP), % of control": 98.6}
{"gene symbol": "Trmt10c (tRNA methyltransferase 10C, mitochondrial RNase P subunit)", "siRNA no.": 1, "GFP, % of control": 116, "viability (ATP), % of control": 77.9}
{"gene symbol": "Trmt10c (tRNA methyltransferase 10C, mitochondrial RNase P subunit)", "siRNA no.": 2, "GFP, % of control": 107, "viability (ATP), % of control": 103}
{"gene symbol": "Trmt10c (tRNA methyltransferase 10C, mitochondrial RNase P subunit)", "siRNA no.": 3, "GFP, % of control": 47.7, "viability (ATP), % of control": 54.7}

Laid out differently: 4 of the entries above.
gene symbol | siRNA no. | GFP, % of control | viability (ATP), % of control
Zfp444 (zinc finger protein 444) | 1 | 46.2 | 54.2
Zfp444 (zinc finger protein 444) | 2 | 91.3 | 97.6
Akr1c18 (aldo-keto reductase family 1, member C18) | 1 | 129 (active) | 82.3
Akr1c18 (aldo-keto reductase family 1, member C18) | 2 | 153 (active) | 93.8

Next results follow:
{"gene symbol": "Or2ag15 (olfactory receptor family 2 subfamily AG member 15)", "siRNA no.": 1, "GFP, % of control": 118, "viability (ATP), % of control": 87.8}
{"gene symbol": "Or2ag15 (olfactory receptor family 2 subfamily AG member 15)", "siRNA no.": 2, "GFP, % of control": 88.4, "viability (ATP), % of control": 54.6}
{"gene symbol": "Or2ag15 (olfactory receptor family 2 subfamily AG member 15)", "siRNA no.": 3, "GFP, % of control": 70.3, "viability (ATP), % of control": 69.6}
{"gene symbol": "Csn2 (casein beta)", "siRNA no.": 1, "GFP, % of control": 78.9, "viability (ATP), % of control": 72.8}
{"gene symbol": "Csn2 (casein beta)", "siRNA no.": 2, "GFP, % of control": 29.5, "viability (ATP), % of control": 51.9}
{"gene symbol": "Csn2 (casein beta)", "siRNA no.": 3, "GFP, % of control": 88.8, "viability (ATP), % of control": 120}
{"gene symbol": "Bmp2 (bone morphogenetic protein 2)", "siRNA no.": 1, "GFP, % of control": 82, "viability (ATP), % of control": 72.2}
{"gene symbol": "Bmp2 (bone morphogenetic protein 2)", "siRNA no.": 2, "GFP, % of control": 49.6, "viability (ATP), % of control": 33.1}
{"gene symbol": "Bmp2 (bone morphogenetic protein 2)", "siRNA no.": 3, "GFP, % of control": 73.9, "viability (ATP), % of control": 58.6}
{"gene symbol": "Slc24a2", "siRNA no.": 1, "GFP, % of control": 81.7, "viability (ATP), % of control": 104}
{"gene symbol": "Slc24a2", "siRNA no.": 2, "GFP, % of control": 76.6, "viability (ATP), % of control": 100}
{"gene symbol": "Slc24a2", "siRNA no.": 3, "GFP, % of control": 33.8, "viability (ATP), % of control": 71}
{"gene symbol": "Actr2 (actin related protein 2)", "siRNA no.": 1, "GFP, % of control": 68.3, "viability (ATP), % of control": 61.1}
{"gene symbol": "Actr2 (actin related protein 2)", "siRNA no.": 2, "GFP, % of control": 66, "viability (ATP), % of control": 74}
{"gene symbol": "Actr2 (actin related protein 2)", "siRNA no.": 3, "GFP, % of control": 87, "viability (ATP), % of control": 72.4}
{"gene symbol": "6820408C15Rik (RIKEN cDNA 6820408C15 gene)", "siRNA no.": 1, "GFP, % of control": 29.5, "viability (ATP), % of control": 27.7}
{"gene symbol": "6820408C15Rik (RIKEN cDNA 6820408C15 gene)", "siRNA no.": 2, "GFP, % of control": 73.1, "viability (ATP), % of control": 84.4}
{"gene symbol": "6820408C15Rik (RIKEN cDNA 6820408C15 gene)", "siRNA no.": 3, "GFP, % of control": 105, "viability (ATP), % of control": 130}
